# Data published in the supplement of paper PMC10849652.
# By UniProt entry, the sequences of proteins in these tests, tags left out. Where a name states a change or a piece, a line headed by the entry shows the natural chain unless it says otherwise.
# UniProt Q9Y5J9: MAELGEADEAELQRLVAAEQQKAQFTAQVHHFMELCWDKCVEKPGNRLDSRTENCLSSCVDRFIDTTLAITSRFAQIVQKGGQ
# UniProt Q8WUY1: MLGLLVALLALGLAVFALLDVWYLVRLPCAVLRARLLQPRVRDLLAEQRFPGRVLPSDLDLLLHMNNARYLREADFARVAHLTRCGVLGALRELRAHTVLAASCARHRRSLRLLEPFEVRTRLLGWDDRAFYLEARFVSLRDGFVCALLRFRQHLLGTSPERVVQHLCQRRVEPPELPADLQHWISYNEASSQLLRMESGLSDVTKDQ
# UniProt Q8WUH2: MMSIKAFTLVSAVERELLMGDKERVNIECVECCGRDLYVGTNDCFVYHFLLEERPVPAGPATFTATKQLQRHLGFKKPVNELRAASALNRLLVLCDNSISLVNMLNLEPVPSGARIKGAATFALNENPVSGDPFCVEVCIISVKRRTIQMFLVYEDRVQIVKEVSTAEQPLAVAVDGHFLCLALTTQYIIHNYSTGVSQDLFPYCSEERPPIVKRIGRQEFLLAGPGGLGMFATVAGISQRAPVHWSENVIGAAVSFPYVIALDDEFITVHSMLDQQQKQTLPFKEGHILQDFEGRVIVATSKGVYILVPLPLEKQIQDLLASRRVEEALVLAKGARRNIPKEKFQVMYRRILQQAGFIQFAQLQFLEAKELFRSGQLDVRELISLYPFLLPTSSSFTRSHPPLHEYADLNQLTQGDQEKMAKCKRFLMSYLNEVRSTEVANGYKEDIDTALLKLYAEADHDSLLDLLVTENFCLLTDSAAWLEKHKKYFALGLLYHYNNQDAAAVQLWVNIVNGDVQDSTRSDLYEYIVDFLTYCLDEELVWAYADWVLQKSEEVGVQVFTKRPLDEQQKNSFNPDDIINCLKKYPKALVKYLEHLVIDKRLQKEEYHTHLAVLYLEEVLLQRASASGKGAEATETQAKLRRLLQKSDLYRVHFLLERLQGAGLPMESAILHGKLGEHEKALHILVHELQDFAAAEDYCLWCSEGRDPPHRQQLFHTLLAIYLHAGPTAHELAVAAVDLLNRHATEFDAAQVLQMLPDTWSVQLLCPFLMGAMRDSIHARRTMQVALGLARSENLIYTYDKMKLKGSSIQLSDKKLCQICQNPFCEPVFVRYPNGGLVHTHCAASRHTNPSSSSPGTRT
# UniProt O60220: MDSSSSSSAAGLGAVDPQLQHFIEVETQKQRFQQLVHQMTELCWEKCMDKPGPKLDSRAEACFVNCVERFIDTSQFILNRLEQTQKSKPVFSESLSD
# UniProt Q99595: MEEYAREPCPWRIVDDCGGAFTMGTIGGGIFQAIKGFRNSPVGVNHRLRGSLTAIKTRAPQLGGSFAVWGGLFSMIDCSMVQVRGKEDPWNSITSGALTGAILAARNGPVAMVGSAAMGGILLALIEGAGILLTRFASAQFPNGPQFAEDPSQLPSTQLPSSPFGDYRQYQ
# UniProt Q3MII6: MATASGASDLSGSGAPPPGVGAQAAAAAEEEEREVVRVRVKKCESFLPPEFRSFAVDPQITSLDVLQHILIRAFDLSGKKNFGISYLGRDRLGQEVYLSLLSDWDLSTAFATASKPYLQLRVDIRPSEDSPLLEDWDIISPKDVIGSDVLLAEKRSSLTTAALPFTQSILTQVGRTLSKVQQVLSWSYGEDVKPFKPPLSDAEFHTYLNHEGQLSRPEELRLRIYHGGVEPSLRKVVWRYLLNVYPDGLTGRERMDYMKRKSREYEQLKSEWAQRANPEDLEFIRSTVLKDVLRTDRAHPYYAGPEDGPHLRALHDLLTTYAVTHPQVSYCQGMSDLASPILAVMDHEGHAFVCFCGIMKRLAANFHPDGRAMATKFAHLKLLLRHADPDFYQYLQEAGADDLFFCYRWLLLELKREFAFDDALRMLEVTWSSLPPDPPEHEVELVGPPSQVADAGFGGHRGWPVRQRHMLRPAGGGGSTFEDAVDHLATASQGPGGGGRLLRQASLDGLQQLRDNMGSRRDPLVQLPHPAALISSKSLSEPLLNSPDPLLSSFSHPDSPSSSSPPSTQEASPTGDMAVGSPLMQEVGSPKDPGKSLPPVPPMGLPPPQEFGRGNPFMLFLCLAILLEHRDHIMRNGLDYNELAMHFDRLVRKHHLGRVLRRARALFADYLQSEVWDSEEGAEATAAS
# UniProt P19532: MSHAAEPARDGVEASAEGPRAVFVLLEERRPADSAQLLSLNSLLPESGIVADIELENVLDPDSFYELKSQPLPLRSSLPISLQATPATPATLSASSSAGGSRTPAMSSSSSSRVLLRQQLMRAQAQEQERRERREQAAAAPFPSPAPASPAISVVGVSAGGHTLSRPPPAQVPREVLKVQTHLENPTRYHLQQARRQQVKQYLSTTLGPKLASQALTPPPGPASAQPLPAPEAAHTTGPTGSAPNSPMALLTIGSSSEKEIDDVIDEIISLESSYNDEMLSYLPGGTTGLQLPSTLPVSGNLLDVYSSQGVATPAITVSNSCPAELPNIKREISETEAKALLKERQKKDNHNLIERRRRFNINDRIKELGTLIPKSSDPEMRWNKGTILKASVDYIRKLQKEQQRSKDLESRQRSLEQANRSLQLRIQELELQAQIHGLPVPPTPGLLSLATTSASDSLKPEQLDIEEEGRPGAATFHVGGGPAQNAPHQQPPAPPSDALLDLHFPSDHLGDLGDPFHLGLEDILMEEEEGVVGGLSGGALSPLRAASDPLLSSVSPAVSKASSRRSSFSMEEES
# UniProt Q6ZT07: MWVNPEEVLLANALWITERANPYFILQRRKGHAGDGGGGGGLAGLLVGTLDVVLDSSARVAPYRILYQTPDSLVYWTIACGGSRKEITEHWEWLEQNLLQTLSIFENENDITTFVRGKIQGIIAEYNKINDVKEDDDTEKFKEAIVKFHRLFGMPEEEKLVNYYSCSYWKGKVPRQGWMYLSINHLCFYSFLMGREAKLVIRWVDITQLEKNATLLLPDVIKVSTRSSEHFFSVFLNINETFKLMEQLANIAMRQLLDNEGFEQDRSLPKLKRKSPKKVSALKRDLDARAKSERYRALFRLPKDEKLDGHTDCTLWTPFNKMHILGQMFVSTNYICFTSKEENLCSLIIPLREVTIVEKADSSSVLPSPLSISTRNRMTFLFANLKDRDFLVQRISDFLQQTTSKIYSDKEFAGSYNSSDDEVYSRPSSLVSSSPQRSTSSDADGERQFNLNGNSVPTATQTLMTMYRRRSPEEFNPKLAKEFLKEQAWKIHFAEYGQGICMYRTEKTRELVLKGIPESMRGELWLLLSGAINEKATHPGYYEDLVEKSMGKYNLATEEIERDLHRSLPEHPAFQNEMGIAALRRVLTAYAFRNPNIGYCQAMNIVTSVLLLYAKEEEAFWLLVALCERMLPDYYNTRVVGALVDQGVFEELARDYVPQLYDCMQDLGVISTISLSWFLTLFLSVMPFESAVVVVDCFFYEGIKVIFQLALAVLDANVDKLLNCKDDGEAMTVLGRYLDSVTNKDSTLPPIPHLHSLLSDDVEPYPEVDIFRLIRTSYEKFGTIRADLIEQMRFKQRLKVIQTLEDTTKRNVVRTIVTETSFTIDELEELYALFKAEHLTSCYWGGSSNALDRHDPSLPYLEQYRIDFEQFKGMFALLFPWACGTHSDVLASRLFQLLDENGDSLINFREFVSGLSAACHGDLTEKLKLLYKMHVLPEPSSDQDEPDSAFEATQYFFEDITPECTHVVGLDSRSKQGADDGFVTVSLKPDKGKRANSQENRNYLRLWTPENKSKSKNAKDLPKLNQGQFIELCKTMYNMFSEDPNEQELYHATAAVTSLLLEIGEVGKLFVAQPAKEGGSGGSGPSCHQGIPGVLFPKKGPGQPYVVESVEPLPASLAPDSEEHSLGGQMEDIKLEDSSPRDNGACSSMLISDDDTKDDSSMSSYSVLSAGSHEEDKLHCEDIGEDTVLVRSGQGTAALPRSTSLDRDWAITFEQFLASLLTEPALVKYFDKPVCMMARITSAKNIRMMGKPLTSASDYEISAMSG
# UniProt Q9BYX2: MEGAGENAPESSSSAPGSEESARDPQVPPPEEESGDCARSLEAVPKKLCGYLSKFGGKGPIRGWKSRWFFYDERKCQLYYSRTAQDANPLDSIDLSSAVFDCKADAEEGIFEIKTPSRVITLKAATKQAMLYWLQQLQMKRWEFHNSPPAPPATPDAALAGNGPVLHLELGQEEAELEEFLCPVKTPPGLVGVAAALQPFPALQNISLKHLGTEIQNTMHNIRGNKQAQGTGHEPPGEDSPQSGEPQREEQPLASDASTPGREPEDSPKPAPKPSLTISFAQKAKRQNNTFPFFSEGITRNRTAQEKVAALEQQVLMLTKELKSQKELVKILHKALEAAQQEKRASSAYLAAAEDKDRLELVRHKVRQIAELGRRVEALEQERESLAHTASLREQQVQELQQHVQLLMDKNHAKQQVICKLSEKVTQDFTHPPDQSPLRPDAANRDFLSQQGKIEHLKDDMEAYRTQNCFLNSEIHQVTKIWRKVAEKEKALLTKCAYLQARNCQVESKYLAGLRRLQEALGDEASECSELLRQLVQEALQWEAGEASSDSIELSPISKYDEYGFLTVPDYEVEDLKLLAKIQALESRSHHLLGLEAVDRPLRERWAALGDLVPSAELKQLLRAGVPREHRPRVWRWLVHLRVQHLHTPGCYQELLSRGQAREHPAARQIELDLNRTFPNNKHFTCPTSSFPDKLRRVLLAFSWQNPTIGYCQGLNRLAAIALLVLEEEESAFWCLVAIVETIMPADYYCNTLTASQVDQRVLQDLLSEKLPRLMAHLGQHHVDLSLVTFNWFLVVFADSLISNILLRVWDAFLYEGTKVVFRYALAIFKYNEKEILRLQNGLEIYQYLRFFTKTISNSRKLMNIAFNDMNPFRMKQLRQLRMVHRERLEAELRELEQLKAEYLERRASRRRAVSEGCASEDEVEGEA
# UniProt Q8IYN2: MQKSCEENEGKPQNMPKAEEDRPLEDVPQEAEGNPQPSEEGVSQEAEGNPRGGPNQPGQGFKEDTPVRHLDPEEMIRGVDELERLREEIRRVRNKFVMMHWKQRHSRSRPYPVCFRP
# UniProt Q9H5L6: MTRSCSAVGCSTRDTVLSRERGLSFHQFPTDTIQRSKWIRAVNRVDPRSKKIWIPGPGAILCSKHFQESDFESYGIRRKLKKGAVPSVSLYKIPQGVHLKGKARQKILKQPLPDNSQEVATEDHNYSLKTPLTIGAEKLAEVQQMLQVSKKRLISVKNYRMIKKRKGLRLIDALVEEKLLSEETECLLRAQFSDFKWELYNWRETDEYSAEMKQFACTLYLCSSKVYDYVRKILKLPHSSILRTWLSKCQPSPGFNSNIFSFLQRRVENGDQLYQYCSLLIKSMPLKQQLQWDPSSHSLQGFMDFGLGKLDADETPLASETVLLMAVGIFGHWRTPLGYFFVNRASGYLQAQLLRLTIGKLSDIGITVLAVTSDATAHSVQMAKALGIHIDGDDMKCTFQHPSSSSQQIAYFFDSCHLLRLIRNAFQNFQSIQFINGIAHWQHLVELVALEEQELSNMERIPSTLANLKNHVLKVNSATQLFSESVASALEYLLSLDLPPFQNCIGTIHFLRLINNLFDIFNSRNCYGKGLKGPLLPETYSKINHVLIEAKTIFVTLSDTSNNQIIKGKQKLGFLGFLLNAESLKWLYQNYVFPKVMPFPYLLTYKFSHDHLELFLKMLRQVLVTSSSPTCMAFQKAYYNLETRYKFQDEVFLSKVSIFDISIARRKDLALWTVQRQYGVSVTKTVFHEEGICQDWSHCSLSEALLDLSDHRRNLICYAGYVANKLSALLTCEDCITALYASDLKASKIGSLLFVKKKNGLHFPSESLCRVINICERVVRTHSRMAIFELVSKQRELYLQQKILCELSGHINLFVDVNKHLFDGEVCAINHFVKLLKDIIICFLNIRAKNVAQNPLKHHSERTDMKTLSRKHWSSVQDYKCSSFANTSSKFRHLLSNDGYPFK
# UniProt Q01664: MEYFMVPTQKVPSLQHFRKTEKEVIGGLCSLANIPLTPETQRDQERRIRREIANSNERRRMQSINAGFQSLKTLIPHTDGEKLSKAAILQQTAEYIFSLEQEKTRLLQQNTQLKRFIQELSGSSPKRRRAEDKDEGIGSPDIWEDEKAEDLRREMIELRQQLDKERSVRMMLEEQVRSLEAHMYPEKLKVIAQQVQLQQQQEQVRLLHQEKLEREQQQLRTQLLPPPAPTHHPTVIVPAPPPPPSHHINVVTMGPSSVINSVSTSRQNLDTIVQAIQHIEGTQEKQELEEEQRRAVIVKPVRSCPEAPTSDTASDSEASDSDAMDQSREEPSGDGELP
# UniProt P20226, whole entry, looked up: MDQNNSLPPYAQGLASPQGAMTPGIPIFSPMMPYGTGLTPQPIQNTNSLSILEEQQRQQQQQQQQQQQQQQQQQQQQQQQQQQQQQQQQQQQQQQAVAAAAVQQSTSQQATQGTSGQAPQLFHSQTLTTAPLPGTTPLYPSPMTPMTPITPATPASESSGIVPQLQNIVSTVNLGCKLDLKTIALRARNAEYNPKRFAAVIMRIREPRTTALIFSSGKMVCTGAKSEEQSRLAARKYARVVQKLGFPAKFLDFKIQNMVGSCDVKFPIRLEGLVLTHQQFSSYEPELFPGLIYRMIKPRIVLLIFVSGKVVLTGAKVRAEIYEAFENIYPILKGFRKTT
# The list shows a part of the results.
# Legend:
# Assay in all cases: log2 fold change, soluble protein after heating vs DMSO (PISA); higher = thermal stabilisation; K562 cells, 10 uM, 30 min; active = over 0.2 and 3.5 SD of the protein, either way, in both replicates (recomputed)
# [1] = compound: NC(=O)Nc1cc(-c2cccc(F)c2)sc1C(=O)N[C@H]1CCCNC1
# In short: (§1)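 K562 cells at 2×10^6 cells/mL were given 10 μM compound for 30 min. Aliquots then went through 3 min of heating across 48°C-58°C, were pooled, and were extracted in PBS with 0.5% NP-40 at 4°C, and the supernatant after 21,000xg for 90 min was quantified by TMTpro 16plex LC-MS/MS with channel sums equalised. Thermal stability relative to control samples, from duplicates, is given as log2 fold change.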
# [2] = compound: NC(=O)c1cnc(N[C@@H]2CCCC[C@@H]2N)nc1Nc1cccc(-n2nccn2)c1
# In short: as §1
# [3] = compound: NC1(c2ccc(-c3nc4ccn5c(=O)[nH]nc5c4cc3-c3ccccc3)cc2)CCC1
# In short: as §1
# [4] = compound: NCC(=O)Nc1ccc(-n2nc(C(F)(F)F)cc2-c2ccc3c(ccc4ccccc43)c2)cc1
# In short: as §1
# entinostat = compound: Nc1ccccc1NC(=O)c1ccc(CNC(=O)OCc2cccnc2)cc1 [entinostat]
# In short: as §1
# vorinostat = compound: O=C(CCCCCCC(=O)Nc1ccccc1)NO [vorinostat]
# In short: as §1
# citarinostat = compound: O=C(CCCCCCNC(=O)c1cnc(N(c2ccccc2)c2ccccc2Cl)nc1)NO [citarinostat]
# In short: as §1
# silmitasertib = compound: O=C(O)c1ccc2c(c1)nc(Nc1cccc(Cl)c1)c1ccncc12 [silmitasertib]
# In short: as §1
# [5] = compound: O=C1NC(=O)C(c2cnc3ccccn23)=C1c1cn2c3c(cc(F)cc13)CN(C(=O)N1CCCCC1)CC2
# In short: as §1
# [6] = compound: c1cc(OCCN2CCCCC2)cc(-c2n[nH]c3ccc(-c4nnc[nH]4)cc23)c1
# In short: as §1
Target,log2 fold change [1],log2 fold change [2],log2 fold change [3],log2 fold change [4],log2 fold change (entinostat),log2 fold change (vorinostat),log2 fold change (citarinostat),log2 fold change (silmitasertib),log2 fold change [5],log2 fold change [6]
TIMM8B (UniProt Q9Y5J9),inactive: 0.176,inactive: 0.008,inactive: -0.097,inactive: 0.034,inactive: 0.016,inactive: -0.593,inactive: 0.034,inactive: -0.118,inactive: -0.045,inactive: 0.072
TBCB (UniProt Q99426),inactive: -0.044,inactive: -0.066,inactive: -0.145,inactive: -0.026,inactive: 0.027,inactive: 0.011,inactive: 0.058,inactive: 0.039,inactive: -0.045,inactive: -0.01
TCOF1 isoform 4 (UniProt Q13428),inactive: 0.131,inactive: -0.065,inactive: -0.014,inactive: -0.013,inactive: -0.015,inactive: -0.026,inactive: -0.002,inactive: 0.002,inactive: 0.045,inactive: -0.112
THEM6 (UniProt Q8WUY1),inactive: -0.059,inactive: -0.002,inactive: 0.18,inactive: 0,inactive: 0.002,inactive: -0.05,inactive: 0.053,inactive: 0.031,inactive: 0.02,inactive: 0.012
TDRKH (UniProt Q9Y2W6),inactive: -0.039,inactive: -0.014,inactive: -0.048,inactive: -0.034,inactive: -0.008,inactive: 0.055,inactive: -0.024,inactive: -0.053,inactive: -0.01,inactive: 0.069
TIPIN (UniProt Q9BVW5),inactive: 0.003,inactive: -0.093,inactive: -0.008,inactive: -0.053,inactive: -0.025,inactive: -0.034,inactive: 0.029,inactive: 0.067,inactive: -0.065,inactive: -0.026
TBC1D22A (UniProt Q8WUA7),inactive: -0.025,inactive: -0.005,inactive: -0.079,inactive: -0.001,inactive: 0.057,inactive: 0.196,inactive: -0.034,inactive: -0.004,inactive: -0.004,inactive: -0.027
TIMM50 isoform 2 (UniProt Q3ZCQ8),inactive: 0.067,inactive: 0.014,inactive: -0.088,inactive: -0.027,inactive: -0.005,inactive: -0.007,inactive: -0.023,inactive: -0.042,inactive: -0.086,inactive: -0.007
TGFBRAP1 (UniProt Q8WUH2),inactive: 0.065,inactive: -0.03,inactive: -0.209,inactive: -0.006,inactive: -0.013,inactive: 0.256,inactive: -0.367,inactive: 0.056,inactive: 0.069,inactive: 0.013
TIPRL (UniProt O75663),inactive: -0.057,inactive: -0.114,active: -0.209,inactive: -0.068,inactive: 0.033,inactive: 0.095,inactive: 0.069,inactive: -0.032,inactive: -0.06,inactive: -0.012
TEX264 (UniProt Q9Y6I9),active: 0.548,inactive: -0.001,inactive: 0.215,inactive: -0.033,inactive: 0.006,inactive: -0.012,inactive: -0.054,inactive: 0.02,inactive: -0.093,inactive: 0.515
TERF2IP (UniProt Q9NYB0),inactive: 0.009,inactive: -0.132,inactive: 0.007,inactive: -0.018,inactive: 0.061,inactive: 0.041,inactive: 0.068,inactive: 0.121,inactive: -0.051,inactive: -0.073
TCERG1 (UniProt O14776),inactive: -0.026,inactive: -0.075,inactive: -0.123,inactive: -0.112,inactive: 0.159,inactive: 0.129,inactive: 0.129,inactive: 0.022,inactive: -0.153,inactive: 0
TIMM29 (UniProt Q9BSF4),inactive: -0.16,inactive: -0.024,inactive: -0.069,inactive: -0.011,inactive: -0.04,inactive: -0.093,inactive: -0.016,inactive: 0.006,inactive: -0.08,inactive: -0.004
TBL2 (UniProt Q9Y4P3),inactive: 0.032,inactive: 0.039,inactive: 0.167,inactive: -0.036,inactive: 0.052,inactive: -0.027,inactive: -0.039,inactive: 0.197,inactive: 0.176,inactive: -0.107
TDP2 isoform 2 (UniProt O95551),inactive: -0.043,inactive: -0.025,inactive: -0.174,inactive: -0.085,inactive: 0.108,inactive: 0.068,inactive: 0.046,inactive: 0.004,inactive: -0.008,inactive: 0.012
TIMM8A (UniProt O60220),inactive: 0.072,inactive: 0.096,inactive: 0.033,inactive: 0.062,inactive: 0.133,inactive: -0.153,inactive: -0.007,inactive: -0.071,inactive: 0.018,inactive: 0.115
TIMM17A (UniProt Q99595),inactive: 0.019,inactive: 0.013,inactive: -0.057,inactive: 0.062,inactive: 0.012,inactive: -0.03,inactive: 0.023,inactive: 0,inactive: 0.036,inactive: -0.064
TBC1D22B (UniProt Q9NU19),inactive: 0.041,inactive: 0.001,inactive: -0.091,inactive: -0.178,inactive: -0.015,inactive: 0.013,inactive: 0.182,inactive: -0.045,inactive: 0.11,inactive: 0.091

# Single records, from the list above. Order of values: log2 fold change [1]	log2 fold change [2]	log2 fold change [3]	log2 fold change [4]	log2 fold change (entinostat)	log2 fold change (vorinostat)	log2 fold change (citarinostat)	log2 fold change (silmitasertib)	log2 fold change [5]	log2 fold change [6]
# TERF2IP (UniProt Q9NYB0) in the list: inactive: 0.009	inactive: -0.132	inactive: 0.007	inactive: -0.018	inactive: 0.061	inactive: 0.041	inactive: 0.068	inactive: 0.121	inactive: -0.051	inactive: -0.073
# TDP2 isoform 2 (UniProt O95551) in the list: inactive: -0.043	inactive: -0.025	inactive: -0.174	inactive: -0.085	inactive: 0.108	inactive: 0.068	inactive: 0.046	inactive: 0.004	inactive: -0.008	inactive: 0.012

# The listing continues.

Target,log2 fold change [1],log2 fold change [2],log2 fold change [3],log2 fold change [4],log2 fold change (entinostat),log2 fold change (vorinostat),log2 fold change (citarinostat),log2 fold change (silmitasertib),log2 fold change [5],log2 fold change [6]
TDRD3 isoform 3 (UniProt Q9H7E2),,,inactive: 0.022,inactive: 0.135,,,,inactive: 0.167,inactive: 0.193,
TBC1D25 (UniProt Q3MII6),,,,inactive: -0.14,,,,,,
TCF20 (UniProt Q9UGU0),,,,,,inactive: 0.098,,,inactive: 0.138,
TENM4 (UniProt Q6N022),,,,,,inactive: 0.123,,,inactive: -0.019,
TEX30 (UniProt Q5JUR7),,inactive: -0.101,inactive: -0.097,inactive: -0.1,,inactive: 0.121,,inactive: 0.073,inactive: -0.04,
THEMIS2 (UniProt Q5TEJ8),,,,,,inactive: 0.071,,,inactive: 0.152,
TIGAR (UniProt Q9NQ88),,,,,,inactive: 0.081,,,,
TFE3 (UniProt P19532),inactive: 0.119,,,,inactive: 0.131,,,,inactive: -0.136,
TBC1D9 (UniProt Q6ZT07),,,,inactive: 0.008,,,,,,
TCF3 isoform 2 (UniProt P15923),,inactive: -0.033,,inactive: -0.035,,inactive: 0.036,inactive: 0.12,,,inactive: 0.014
TBC1D2 (UniProt Q9BYX2),,inactive: -0.078,inactive: -0.181,,,inactive: -0.022,inactive: -0.026,inactive: 0.26,inactive: 0.058,inactive: -0.202
TCEAL1 isoform 2 (UniProt Q15170),inactive: -0.038,,,inactive: 0.268,inactive: 0.046,inactive: -0.091,,,,
THAP12 (UniProt O43422),,,,,,inactive: -0.2,,,,
TET2 (UniProt Q6N021),,,inactive: 0.557,,,,inactive: -0.369,inactive: -0.102,,inactive: 0.06
TCEAL8 (UniProt Q8IYN2),,,inactive: 0.178,,,inactive: 0.399,,inactive: 0.155,,
THAP9 (UniProt Q9H5L6),,inactive: 0.021,inactive: 0.024,,,,,inactive: 0.049,,
TFAP4 (UniProt Q01664),,,,inactive: -0.005,,inactive: 0.044,inactive: 0.18,,,inactive: 0.025
TCOF1 isoform 3 (UniProt Q13428),inactive: 0.283,,,,inactive: 0.008,inactive: 0.205,inactive: 0.105,,inactive: 0.067,inactive: -0.146
TBP (UniProt P20226),,inactive: 0.095,inactive: 0.015,inactive: 0.033,,,inactive: 0.013,inactive: 0.183,inactive: -0.025,inactive: -0.041
